Measurements reported in PMC4960319.
Results are given in words; binding and its absence hold for the method and conditions named. Binding calls can cover weak binding; strength is not graded here.

Protein sequences, listed by entry. Tags and fused reporters are not part of them. Lines headed by an entry give the natural chain unless they say otherwise; changes in a name come on top. Residues count along the entry.
UniProt Q7AKG9, residues 5-227: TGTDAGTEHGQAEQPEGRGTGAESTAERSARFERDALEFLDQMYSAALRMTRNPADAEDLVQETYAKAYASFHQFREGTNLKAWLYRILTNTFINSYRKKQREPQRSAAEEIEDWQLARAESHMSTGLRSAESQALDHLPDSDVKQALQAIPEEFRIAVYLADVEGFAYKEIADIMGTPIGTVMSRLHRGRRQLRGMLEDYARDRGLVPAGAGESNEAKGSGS
UniProt Q7AKG8: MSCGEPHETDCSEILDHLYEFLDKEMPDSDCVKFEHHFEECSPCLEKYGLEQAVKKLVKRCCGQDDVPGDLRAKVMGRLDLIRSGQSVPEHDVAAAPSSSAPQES

Molecular target: σ^R (sigma factor SigR) from Streptomyces coelicolor, residues 5-227, tagless (Streptomyces coelicolor) (UniProt Q7AKG9)
Experiment: ITC; RsrA mutants (values in Supplementary Table 1); 35 °C, 50 mM Tris pH 7.5, 100 mM NaCl, 2 mM DTT; direct titration for weaker binding mutants (10 μM RsrA in the cell, 100 μM σ^R in the syringe); RsrA preincubated with ZnCl2 and buffer exchanged where zinc was included; both purified

RsrA* Cys41Ser (from UniProt Q7AKG8)
binding: binds
